In patent US20250320211A1, “COMPOUND, COMPOSITION, AND ELECTROPHOTOGRAPHIC PHOTORECEPTOR” (MITSUBISHI CHEMICAL CORPORATION, priority 2022, published 2025):

Assay: Measurement of residual potential of photoreceptor
Conditions: photoreceptor with protective layer using the compound; Table 1

Row | SMILES | residual potential property (in words)
1 | C=C(C)C(=O)OCC(COC(=O)C(=C)C)OC(=O)CCC(=O)OCC(CC(C)C)N1C(=O)c2ccc3c4ccc5c6c(ccc(c7ccc(c2c37)C1=O)c64)C(=O)N(C(COC(=O)CCC(=O)OC(COC(=O)C(=C)C)COC(=O)C(=C)C)CC(C)C)C5=O (centres unmarked) [Comparative Compound 4] | poor residual potential property
2 | C=C(C)C(=O)OCC(COC(=O)C(=C)C)OC(=O)CCC(=O)OCC(COC(=O)CCC(=O)OC(COC(=O)C(=C)C)COC(=O)C(=C)C)N1C(=O)c2ccc3c4ccc5c6c(ccc(c7ccc(c2c37)C1=O)c64)C(=O)N(C(COC(=O)CCC(=O)OC(COC(=O)C(=C)C)COC(=O)C(=C)C)COC(=O)CCC(=O)OC(COC(=O)C(=C)C)COC(=O)C(=C)C)C5=O [Comparative Compound 5] | poor residual potential property
